No constants are given. Whether binding was seen depends on the method and setting. Binding seen in cells or lysates may run through a third protein. Some entries that bind do so weakly or less than the wild type.
How the values were obtained:
[1] = target: PA-tagged CEP290 (centrosomal protein 290) (mouse (endogenous in mIMCD3)) (UniProt Q6A078); assay: proximity ligation; Duolink PLA on PA-CEP290 mIMCD3 cells fixed with 4% PFA; anti-APC (rabbit) with anti-rabbit IgG-MINUS probe and anti-PA tag-PLUS probe
[2] = target: PA-tagged CEP290 (centrosomal protein 290) (mouse (endogenous in mIMCD3)) (UniProt Q6A078); assay: co-IP; lysate of PA-CEP290 knock-in mIMCD3 cells; immunoprecipitation with anti-PA, anti-APC or anti-paxillin antibodies, Western blotting
[3] = target: Adenomatous polyposis coli (APC) (mouse (endogenous in mIMCD3)) (UniProt Q61315); assay: as above

Amino acid sequences for entries named in this document (tags omitted).
UniProt Q6A078: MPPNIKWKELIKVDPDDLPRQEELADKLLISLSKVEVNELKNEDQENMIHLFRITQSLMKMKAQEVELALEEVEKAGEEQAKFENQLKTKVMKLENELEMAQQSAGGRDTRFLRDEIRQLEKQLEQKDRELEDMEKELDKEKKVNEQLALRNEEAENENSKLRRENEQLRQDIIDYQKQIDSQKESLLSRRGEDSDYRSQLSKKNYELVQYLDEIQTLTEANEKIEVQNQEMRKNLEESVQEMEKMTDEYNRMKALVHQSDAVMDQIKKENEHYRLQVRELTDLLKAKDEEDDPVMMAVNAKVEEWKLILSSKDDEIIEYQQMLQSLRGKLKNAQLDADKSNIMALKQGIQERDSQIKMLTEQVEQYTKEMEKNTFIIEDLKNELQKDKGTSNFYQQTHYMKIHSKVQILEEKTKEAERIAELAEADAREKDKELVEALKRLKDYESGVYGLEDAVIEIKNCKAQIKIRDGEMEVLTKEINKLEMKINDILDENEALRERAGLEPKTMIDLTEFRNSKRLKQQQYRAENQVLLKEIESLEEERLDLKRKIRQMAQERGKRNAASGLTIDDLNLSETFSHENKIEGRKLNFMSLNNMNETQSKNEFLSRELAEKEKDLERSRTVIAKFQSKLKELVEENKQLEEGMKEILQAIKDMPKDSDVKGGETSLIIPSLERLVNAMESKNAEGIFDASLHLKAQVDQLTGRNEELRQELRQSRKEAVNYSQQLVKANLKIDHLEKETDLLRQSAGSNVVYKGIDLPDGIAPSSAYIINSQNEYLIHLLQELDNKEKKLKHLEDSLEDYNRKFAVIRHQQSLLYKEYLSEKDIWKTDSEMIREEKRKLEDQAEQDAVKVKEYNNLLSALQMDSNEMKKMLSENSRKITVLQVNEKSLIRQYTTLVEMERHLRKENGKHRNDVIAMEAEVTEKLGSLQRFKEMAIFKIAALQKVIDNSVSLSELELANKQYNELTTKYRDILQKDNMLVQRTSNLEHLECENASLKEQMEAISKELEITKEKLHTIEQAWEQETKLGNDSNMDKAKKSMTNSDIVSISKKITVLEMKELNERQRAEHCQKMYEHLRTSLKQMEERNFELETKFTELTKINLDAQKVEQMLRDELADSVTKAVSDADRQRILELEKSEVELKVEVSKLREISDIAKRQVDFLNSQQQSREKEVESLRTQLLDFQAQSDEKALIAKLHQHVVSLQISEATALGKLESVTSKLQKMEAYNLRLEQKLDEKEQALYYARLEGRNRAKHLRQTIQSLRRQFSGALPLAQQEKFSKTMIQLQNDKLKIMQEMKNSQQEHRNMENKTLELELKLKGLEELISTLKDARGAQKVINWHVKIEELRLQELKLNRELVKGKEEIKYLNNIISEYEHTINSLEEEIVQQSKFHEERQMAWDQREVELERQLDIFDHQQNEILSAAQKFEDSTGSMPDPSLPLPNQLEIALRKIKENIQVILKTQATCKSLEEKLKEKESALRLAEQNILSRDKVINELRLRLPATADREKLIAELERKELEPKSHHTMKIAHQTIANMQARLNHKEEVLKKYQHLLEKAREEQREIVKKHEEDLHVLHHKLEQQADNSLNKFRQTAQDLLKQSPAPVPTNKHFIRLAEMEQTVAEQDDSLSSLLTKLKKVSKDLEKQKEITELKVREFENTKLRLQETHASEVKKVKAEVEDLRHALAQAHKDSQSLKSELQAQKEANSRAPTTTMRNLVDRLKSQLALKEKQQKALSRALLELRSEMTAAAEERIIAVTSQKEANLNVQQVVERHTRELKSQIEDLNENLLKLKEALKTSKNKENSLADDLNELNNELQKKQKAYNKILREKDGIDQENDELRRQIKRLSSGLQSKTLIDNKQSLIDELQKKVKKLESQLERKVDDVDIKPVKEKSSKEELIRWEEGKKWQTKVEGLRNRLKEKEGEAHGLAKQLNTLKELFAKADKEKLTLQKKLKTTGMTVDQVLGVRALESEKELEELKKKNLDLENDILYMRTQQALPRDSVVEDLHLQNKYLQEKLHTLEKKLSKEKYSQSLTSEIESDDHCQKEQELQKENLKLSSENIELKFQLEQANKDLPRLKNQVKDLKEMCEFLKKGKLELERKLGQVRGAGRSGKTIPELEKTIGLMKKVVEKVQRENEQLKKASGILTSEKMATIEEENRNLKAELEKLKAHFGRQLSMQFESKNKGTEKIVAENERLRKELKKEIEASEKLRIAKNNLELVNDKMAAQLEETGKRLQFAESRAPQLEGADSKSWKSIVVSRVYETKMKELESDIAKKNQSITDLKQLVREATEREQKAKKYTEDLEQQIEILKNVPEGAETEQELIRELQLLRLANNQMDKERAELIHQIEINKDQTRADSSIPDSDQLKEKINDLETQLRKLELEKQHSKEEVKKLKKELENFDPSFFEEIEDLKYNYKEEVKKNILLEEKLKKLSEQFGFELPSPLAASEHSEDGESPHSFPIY
UniProt Q61315: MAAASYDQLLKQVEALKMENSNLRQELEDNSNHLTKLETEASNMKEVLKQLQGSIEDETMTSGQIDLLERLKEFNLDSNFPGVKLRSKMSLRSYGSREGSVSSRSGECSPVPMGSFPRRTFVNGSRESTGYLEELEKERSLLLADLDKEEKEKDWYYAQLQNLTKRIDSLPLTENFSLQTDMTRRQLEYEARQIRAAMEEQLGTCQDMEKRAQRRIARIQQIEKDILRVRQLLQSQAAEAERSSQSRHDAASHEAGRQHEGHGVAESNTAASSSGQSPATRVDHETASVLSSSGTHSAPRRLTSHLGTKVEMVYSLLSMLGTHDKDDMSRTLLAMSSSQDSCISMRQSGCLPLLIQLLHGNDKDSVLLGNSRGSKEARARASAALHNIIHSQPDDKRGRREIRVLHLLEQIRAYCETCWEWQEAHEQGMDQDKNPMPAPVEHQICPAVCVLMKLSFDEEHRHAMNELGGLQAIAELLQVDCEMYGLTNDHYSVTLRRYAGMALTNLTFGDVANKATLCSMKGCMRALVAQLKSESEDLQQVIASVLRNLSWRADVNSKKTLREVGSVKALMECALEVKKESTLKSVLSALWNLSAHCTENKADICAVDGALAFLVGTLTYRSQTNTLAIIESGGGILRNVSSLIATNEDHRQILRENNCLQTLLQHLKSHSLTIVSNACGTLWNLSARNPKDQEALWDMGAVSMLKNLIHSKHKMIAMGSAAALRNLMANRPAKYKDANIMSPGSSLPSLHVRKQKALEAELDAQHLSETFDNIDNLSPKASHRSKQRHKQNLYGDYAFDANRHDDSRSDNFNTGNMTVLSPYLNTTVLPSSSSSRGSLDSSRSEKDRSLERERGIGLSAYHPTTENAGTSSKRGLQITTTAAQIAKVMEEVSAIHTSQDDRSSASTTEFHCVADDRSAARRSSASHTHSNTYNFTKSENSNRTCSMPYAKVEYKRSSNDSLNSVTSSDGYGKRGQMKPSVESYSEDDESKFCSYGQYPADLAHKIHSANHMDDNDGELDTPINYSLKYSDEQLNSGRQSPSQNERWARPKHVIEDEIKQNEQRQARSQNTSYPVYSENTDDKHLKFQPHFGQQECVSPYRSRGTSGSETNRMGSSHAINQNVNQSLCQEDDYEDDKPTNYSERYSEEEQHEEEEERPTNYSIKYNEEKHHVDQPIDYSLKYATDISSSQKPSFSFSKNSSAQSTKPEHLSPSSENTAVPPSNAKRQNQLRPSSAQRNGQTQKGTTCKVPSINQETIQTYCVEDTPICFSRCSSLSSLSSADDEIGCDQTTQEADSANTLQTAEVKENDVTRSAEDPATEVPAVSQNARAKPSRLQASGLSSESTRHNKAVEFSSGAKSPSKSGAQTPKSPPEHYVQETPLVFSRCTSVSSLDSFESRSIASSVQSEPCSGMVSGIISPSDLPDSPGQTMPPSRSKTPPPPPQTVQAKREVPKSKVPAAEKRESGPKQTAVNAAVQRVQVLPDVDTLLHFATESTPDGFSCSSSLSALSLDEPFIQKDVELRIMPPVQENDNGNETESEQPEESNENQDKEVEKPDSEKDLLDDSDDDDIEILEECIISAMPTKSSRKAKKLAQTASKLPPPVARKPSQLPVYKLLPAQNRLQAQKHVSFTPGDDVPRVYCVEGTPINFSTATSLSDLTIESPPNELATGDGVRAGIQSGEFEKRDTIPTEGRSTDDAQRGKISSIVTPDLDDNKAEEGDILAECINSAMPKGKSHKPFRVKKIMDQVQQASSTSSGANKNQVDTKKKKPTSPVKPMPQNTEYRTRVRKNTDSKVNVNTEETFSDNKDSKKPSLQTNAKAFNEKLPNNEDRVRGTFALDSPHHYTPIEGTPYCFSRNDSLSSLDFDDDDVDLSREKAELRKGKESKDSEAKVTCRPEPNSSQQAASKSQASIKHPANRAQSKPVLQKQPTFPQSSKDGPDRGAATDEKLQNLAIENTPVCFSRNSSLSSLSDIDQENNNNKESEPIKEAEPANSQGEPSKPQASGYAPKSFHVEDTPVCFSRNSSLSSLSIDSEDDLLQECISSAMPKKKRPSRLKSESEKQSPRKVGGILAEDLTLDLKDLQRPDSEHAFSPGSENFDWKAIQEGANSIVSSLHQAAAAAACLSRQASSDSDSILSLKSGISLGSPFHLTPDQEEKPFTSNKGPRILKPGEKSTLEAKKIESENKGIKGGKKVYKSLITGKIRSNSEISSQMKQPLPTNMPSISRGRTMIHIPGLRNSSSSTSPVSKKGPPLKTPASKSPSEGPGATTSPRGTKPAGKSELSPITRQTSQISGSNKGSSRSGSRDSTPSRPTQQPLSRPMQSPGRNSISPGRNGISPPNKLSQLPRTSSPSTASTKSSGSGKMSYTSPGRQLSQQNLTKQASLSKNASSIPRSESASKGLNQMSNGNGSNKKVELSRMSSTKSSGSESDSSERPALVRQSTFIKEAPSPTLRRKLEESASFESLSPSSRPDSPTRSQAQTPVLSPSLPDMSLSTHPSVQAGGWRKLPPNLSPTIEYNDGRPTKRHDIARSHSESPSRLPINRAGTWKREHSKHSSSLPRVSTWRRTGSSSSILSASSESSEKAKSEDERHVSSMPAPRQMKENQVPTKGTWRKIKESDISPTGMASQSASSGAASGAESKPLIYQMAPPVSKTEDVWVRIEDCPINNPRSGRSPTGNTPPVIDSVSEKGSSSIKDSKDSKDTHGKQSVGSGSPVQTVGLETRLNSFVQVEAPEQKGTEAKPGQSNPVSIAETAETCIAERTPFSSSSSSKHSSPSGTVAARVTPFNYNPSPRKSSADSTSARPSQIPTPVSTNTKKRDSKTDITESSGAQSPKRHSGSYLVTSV
UniProt Q8VI36: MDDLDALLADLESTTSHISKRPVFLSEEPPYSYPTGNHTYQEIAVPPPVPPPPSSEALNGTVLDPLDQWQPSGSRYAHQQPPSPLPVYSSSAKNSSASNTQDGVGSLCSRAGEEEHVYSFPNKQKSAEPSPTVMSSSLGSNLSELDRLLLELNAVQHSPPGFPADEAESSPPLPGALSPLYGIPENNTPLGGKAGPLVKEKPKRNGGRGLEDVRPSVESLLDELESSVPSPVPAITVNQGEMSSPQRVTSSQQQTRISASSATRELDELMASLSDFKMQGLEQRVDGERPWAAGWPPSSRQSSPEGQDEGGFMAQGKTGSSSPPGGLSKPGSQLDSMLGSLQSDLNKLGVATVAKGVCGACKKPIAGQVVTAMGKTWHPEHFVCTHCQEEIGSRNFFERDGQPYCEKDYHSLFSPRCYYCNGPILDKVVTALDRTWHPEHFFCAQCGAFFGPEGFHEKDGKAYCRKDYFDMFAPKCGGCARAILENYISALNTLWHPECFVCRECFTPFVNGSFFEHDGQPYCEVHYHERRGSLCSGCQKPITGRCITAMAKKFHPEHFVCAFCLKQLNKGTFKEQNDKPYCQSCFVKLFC

| binding [1] | binding [2] | binding [3] | Substance |
| --- | --- | --- | --- |
| binds | binds | – | Adenomatous polyposis coli (APC) (from UniProt Q61315 1-2845) |
| – | no binding | – | Paxillin (from UniProt Q8VI36 1-591) |
| – | – | binds | PA-tagged CEP290 (centrosomal protein 290) (from UniProt Q6A078 1-2472) |
